Paper PMC8689486
No constants are given. Whether binding was seen depends on the method and setting. In cells and extracts the contact can be indirect. Some binding calls cover weakened binding; strength is not graded here.

Target: T1, ADP-ribosylation factor-like protein 15 (ARL15) (mouse (endogenous in mouse brain, iWAT and 3T3-L1)) (UniProt Q8BGR6)
T1 sequence: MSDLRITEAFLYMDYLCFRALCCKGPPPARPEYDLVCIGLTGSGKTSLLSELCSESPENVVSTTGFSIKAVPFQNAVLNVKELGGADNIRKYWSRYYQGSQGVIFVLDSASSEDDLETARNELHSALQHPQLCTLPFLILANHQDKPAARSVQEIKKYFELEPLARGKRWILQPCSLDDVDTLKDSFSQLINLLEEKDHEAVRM
Assay: co-IP; WT mouse brain lysate precipitated with anti-ARL15 antibody and Protein G Sepharose, rabbit IgG as control; western blot for ARL6IP5

- binding: binds
B1: ADP Ribosylation Factor like GTPase 6 Interacting Protein 5 (ARL6IP5) (protein, UniProt Q8R5J9 1-188)
chain: MDVNLAPLRAWDDFFPGSDRFARPDFRDISKWNNRVVSNLLYYQTNYLVVAAMMISVVGFLSPFNMILGGVIVVLVFMGFVWAAHNKDILRRMKKQYPTAFVMVVMLASYFLISMFGGVMVFVFGITLPLLLMFIHASLRLRNLKNKLENKMEGIGLKKTPMGIILDALEQQEDNINKFADYISKARE
